A short description of data set [1]: TC type field effect transistor on HMDS-SAM treated substrate, carrier mobility (Example 50). To be noted: TC FET, substrate temperature during deposition 25° C. and 100° C., L=50 μm, W=2000 μm. Here is the method: Using the compounds of this application synthesized in Examples 38 to 48, and the compound Ref-01 in Comparative Example 1, and the compound (2)-64, TC type field effect transistors were created by the same operation as that in Example 49 except that a substrate treated with HMDS-SAM was used, the substrate temperature during deposition was 25° C. and 100° C., L=50 μm, and W=2000 μm. The semiconductor properties of the obtained transistors were measured according to Example 49.

Data set [2] is described as follows: Top contact type field effect transistor, carrier mobility (Example 49 / Comparative Example 1). To be noted: TC FET, octadecyltrichlorosilane treated 300 nm SiO2/n-doped Si, 50 nm vacuum deposited film, substrate temperature approximately 60° C. The text has this:
An n-doped silicon wafer subjected to an octadecyltrichlorosilane treatment and having a 300 nm SiO2 thermal oxide film (surface resistance of 0.02 Ω·cm or less) was placed inside of a vacuum deposition apparatus, and the air in the apparatus was discharged until the degree of vacuum of the air reached 5.0×10^−3 Pa or less. Each of the compounds (1)-12, (1)-22, and (1)-31 was deposited onto an electrode to have a thickness of 50 nm by a resistance heating deposition method under the condition of a substrate temperature of approximately 60° C. Thereby, a semiconductor layer (2) was formed. Next, a shadow mask for creating an electrode was attached to this substrate. The substrate was placed inside of the vacuum deposition apparatus, and the air in the apparatus was discharged until the degree of vacuum of the air reached 1.0×10^−4 Pa or less. The gold electrodes, that is, the source electrode (1) and the drain electrode (3) were deposited by the resistance heating deposition method to have a thickness of 40 nm. Thereby, a TC (top contact) type field effect transistor of the present invention was obtained.
In the field effect transistor, the thermal oxide film in the n-doped silicon wafer having a thermal oxide film has the function of the insulator layer (4), and the n-doped silicon wafer has the functions of the substrate (6) and the gate electrode (5) (see FIG. 3).
The obtained field effect transistor was placed inside of a prober, and the semiconductor properties were measured using a semiconductor parameter analyzer 4155C (manufactured by Agilent Technologies, Inc.). For the semiconductor properties, the drain current-drain voltage was measured by scanning the gate voltage from 10 V to −100 V at 20 V steps, and scanning the drain voltage from 10 V to −100 V. Current saturation was observed.
Instead of the compound according to the present embodiment used in Example 49, DNTT (Ref-01), 3,10-DM-DNTT (Ref-02; a compound wherein R^1 in (1) was a methyl group), and 2,9-DM-DNTT (Ref-03; a compound wherein R^2 in (1) was a methyl group) were used, and TC type field effect transistors were obtained by the same operation as that in Example 49.

Data set [3] in a line: TC type field effect transistor, channel length dependency (Example 53). Particulars: for channel length dependency of mobility: L=40 μm versus L=190 μm; for Mobility: channel width 1500 μm, substrate approximately 100° C., octadecyltrichlorosilane treated. The text has this: An n-doped silicon wafer subjected to an octadecyltrichlorosilane treatment and having a 300 nm SiO2 thermal oxide film (surface resistance of 0.02 Ω·cm or less) was placed inside of a vacuum deposition apparatus, and the air in the apparatus was discharged until the degree of vacuum reached 5.0×10^−3 Pa or less. Each of the compounds (1)-12 and 2-(64) was deposited onto an electrode to have a thickness of 50 nm by the resistance heating deposition method under the condition of the substrate temperature of approximately 100° C. Thereby, a semiconductor layer (2) was formed. Next, a shadow mask for creating an electrode (channel width of 1500 μm) having a channel length L of 40 μm or 190 μm was attached to this substrate. The substrate was placed inside of the vacuum deposition apparatus, and the air in the apparatus was discharged until the degree of vacuum reached 1.0×10^−4 Pa or less. The gold electrodes, namely, the source electrode (1) and the drain electrode (3) were deposited by the resistance heating deposition method to have a thickness of 40 nm. Thereby, a TC (top contact) type field effect transistor of the present invention was obtained. […] Meanwhile, the compound (2)-64 having a substituent at 2,9-positions attained a transistor having the mobility 6.1 cm^2/Vs at L=190 μm, but the channel length dependency was remarkable.

A short description of data set [4]: Heat resistance test of TC type field effect transistors (Example 51). Here is the method: Using the compound (1)-22 synthesized in Example 39 and the compound (2)-64 synthesized in Synthesis Example 14, TC type field effect transistors were created by the same operation as that in Example 49 except that a substrate treated with HMDS-SAM was used, the substrate temperature during deposition was 100° C., L=40 μm, and W=1500 μm. The obtained field effect transistors were subjected to a heat resistance test. Comparing the initial properties (μ=1.66 cm^2/Vs, Vth=−14 V, Ion/off˜10^9), the mobility was approximately 1.6 cm^2/Vs even after annealing at 100° C. and 150° C., and the values of these properties were kept approximately equal to the initial values thereof. The properties were improved, for example, Vth was shifted to a low potential side.

Where [5] appears, read: channel length L 190 (text: μm).
The mark [6] stands for this setting: Not annealed (initial), HMDS-SAM, substrate 100° C., L=40 μm, W=1500 μm.

Where “and” joins values, the source holds several entries; their conditions need not be identical. Identical values can stand only once. Marks after values point to notes of the source that are not given here.

In the case of `CCCCc1ccc2cc3c(cc2c1)sc1c2cc4ccc(CCCC)cc4cc2sc31` [(1)-04, 3,10-dibutyldinaphtho[2,3-b:2′,3′-f]thieno[2,3-b]thiophene], the Mobility in data set [1] is listed as 3.16 cm^2/Vs.
In the case of `CCCCCCCCCCc1ccc2cc3sc4c5cc6cc(CCCCCCCCCC)ccc6cc5sc4c3cc2c1` [(1)-12, 3,10-didecyl dinaphtho[2,3-b:2′,3′-f]thieno[2,3-b]thiophene], the Mobility in data set [2] is recorded as 8.0 cm^2/Vs; in data set [1], 3.98 cm^2/Vs; in data set [3] (channel length L 40 (text: μm)), 3.15 cm^2/Vs; in data set [3] (setting [5]), 3.56 cm^2/Vs. In addition, the “channel length dependency of mobility” value in data set [3] is “small”. Further, the figures for the Ion/off in data set [3] (channel length L 40) and in data set [3] (channel length L 190) were 10^9 and 10^8, respectively. The Vth in data set [3] (channel length L 40) is recorded as −19 V; in data set [3] (channel length L 190), −17 V.
`Cc1ccc2cc3c(cc2c1)sc1c2cc4ccc(C)cc4cc2sc31` [Ref-03] came in with a Mobility in data set [2] of 0.2 cm^2/Vs.
Still for that read-out and setting: to `Cc1ccc2cc3sc4c5cc6cc(C)ccc6cc5sc4c3cc2c1` [Ref-02] belongs 0.2 cm^2/Vs.
Turning to `CCCCCCCCCCCCc1ccc2cc3c(cc2c1)sc1c2cc4ccc(CCCCCCCCCCCC)cc4cc2sc31` [(1)-14, 3,10-didodecyldinaphtho[2,3-b:2′,3′-f]thieno[2,3-b]thiophene], in data set [1], the Mobility came out at 3.78 cm^2/Vs.
For the molecule `c1ccc(-c2ccc(-c3ccc4cc5sc6c7cc8cc(-c9ccc(-c%10ccccc%10)cc9)ccc8cc7sc6c5cc4c3)cc2)cc1` [(1)-33, 2,9-dibiphenyldinaphtho[2,3-b:2′,3′-f]thieno[2,3-b]thiophene], in data set [1], the Mobility is recorded as 1.86* cm^2/Vs.
For `c1ccc(-c2ccc3cc4sc5c6cc7cc(-c8ccccc8)ccc7cc6sc5c4cc3c2)cc1` [(1)-22, 3,10-diphenyl dinaphtho[2,3-b:2′,3′-f]thieno[3,2-b]thiophene], the figures for the Mobility in data set [2] and in data set [1] were 3.4 cm^2/Vs and 4.04 cm^2/Vs, respectively. The Ion/Ioff in data set [4] (Annealed (100° C.)) and in data set [4] (Annealed (150° C.)) was 1.0 × 10^9 throughout. The Vth in data set [4] (Annealed (100° C.)) was −8.8 V; in data set [4] (Annealed (150° C.)) it was −7.0 V; in data set [4] (Not annealed (initial)), −14 V and −14.0 V. The μ in data set [4] (Annealed (100° C.)) turned out to be 1.59 cm^2/Vs; in data set [4] (Annealed (150° C.)) it was 1.62 cm^2/Vs; in data set [4] (setting [6]), 1.66 cm^2/Vs. In data set [4] (after annealing at 100° C. and 150° C.), the mobility after annealing entry was “approximately 1.6 cm^2/Vs”.
On to `c1ccc2cc3c(cc2c1)sc1c2cc4ccccc4cc2sc31` [Ref-01, Dinaphtho[2,3-b:2′,3′-f]thieno[3,2-b]thiophene, reference compound], for which the Mobility worked out at 3.0 cm^2/Vs in data set [2] and 1.22 cm^2/Vs in data set [1].
Consider `Cc1ccc(-c2ccc3cc4c(cc3c2)sc2c3cc5ccc(-c6ccc(C)cc6)cc5cc3sc42)cc1` [(1)-23, 3,10-ditolyldinaphtho[2,3-b:2′,3′-f]thieno[2,3-b]thiophene], for which the Mobility in data set [1] is given as 1.78 cm^2/Vs.
Same read-out and setting: the result for `Cc1ccc(-c2ccc3cc4sc5c6cc7cc(-c8ccc(C)cc8)ccc7cc6sc5c4cc3c2)cc1` [(1)-32, 2,9-ditolyldinaphtho[2,3-b:2′,3′-f]thieno[2,3-b]thiophene] reads 2.09 cm^2/Vs.
For `CCCCCCCCCCc1ccc2cc3sc4c5cc6cc(CCCCCCCCCC)ccc6cc5sc4c3cc2c1` [(2)-64, 2,9-didecyldinaphtho[2,3-b:2′,3′-f]thieno[2,3-b]thiophene, reference compound], the Ion/Ioff in data set [4] (Annealed (100° C.)), in data set [4] (Annealed (150° C.)) and in data set [4] (Not annealed (initial)) was 1.0 × 10^9 in each case. Besides, the Vth in data set [4] (Annealed (100° C.)) is recorded as −1.0 V; in data set [4] (Annealed (150° C.)) it was 0.8 V; in data set [4] (Not annealed (initial)) it was 0.2 V; in data set [3] (channel length L 40) it was −10 V; in data set [3] (channel length L 190), −5 V. Moreover, the figures for the μ in data set [4] (Annealed (100° C.)), in data set [4] (Annealed (150° C.)) and in data set [4] (setting [6]) were 1.52 cm^2/Vs, 0.77 cm^2/Vs and 1.96 cm^2/Vs, respectively. Further, the “change of mobility on heating” value in data set [4] (at approximately 120° C.) was “reduced by half”. In addition, the “channel length dependency of mobility” value in data set [3] was “remarkable”. For the same molecule, the Ion/off in data set [3] (channel length L 40) is 10^8; in data set [3] (channel length L 190) it was 10^9. In addition, the results for the Mobility in data set [3] (channel length L 40 (text: μm)) and in data set [3] (setting [5]) were 3.7 cm^2/Vs and 6.1 cm^2/Vs, respectively.
As for `c1ccc(-c2ccc3cc4sc5c6cc7cc(-c8ccccc8)ccc7cc6sc5c4cc3c2)cc1` [(1)-31, 2,9-diphenyl dinaphtho[2,3-b:2′,3′-f]thieno[3,2-b]thiophene], the Mobility in data set [2] is recorded as 3.9 cm^2/Vs; in data set [1], 2.06 cm^2/Vs.
As for `CCCCCCCCc1ccc2cc3c(cc2c1)sc1c2cc4ccc(CCCCCCCC)cc4cc2sc31` [(1)-10, 3,10-dioctyldinaphtho[2,3-b:2′,3′-f]thieno[2,3-b]thiophene], in data set [1], the Mobility was found to be 3.22 cm^2/Vs.
Molecule `CCCCCCc1ccc2cc3c(cc2c1)sc1c2cc4ccc(CCCCCC)cc4cc2sc31` [(1)-08, 3,10-dihexyldinaphtho[2,3-b:2′,3′-f]thieno[2,3-b]thiophene] yielded a Mobility in data set [1] of 2.96 cm^2/Vs.

The values above are taken from patent US9018630B2, “Heterocyclic dinaphtho thieno thiophene (DNTT) compounds for use as organic semiconductor thin films in field effect transistors and related methods” (Nippon Kayaku Kabushiki Kaisha, priority 2011, dated 2015).
